Data taken from PubChem BioAssay AID1347423 (Functional Genomics Laboratory (NCATS/FGL), 2020).
Among all 52,000 sequences or so, about 210 (0.4%) were called active.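 How the source made its calls: active means gene whose silencing raises cell survival under the drug, median off-target-corrected z-score across its silencing RNAs 2 or more; inactive means the rest.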 This is one part of the list.

test: Resistance to Poly (ADP-Ribose) Polymerase inhibitor: Gene Identification via Genome-wide siRNA Screen; conditions: mouse BRCA2 R2336H ES cells, olaparib, CellTiter-Glo viability; stronger effect = higher value
Procedure, shortened: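 Mouse BRCA2 R2336H ES cells were reverse-transfected with siRNA (20 nM final), treated at 48 h with 500 nM olaparib, and read by CellTiter-Glo after 72 h. Scores: MAD-based z per siRNA, median per gene, seed off-target correction.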

Sequence | z-score
CCUACUCACAGUAAUUAAGTT against Trpm8 | inactive: 0.0647
GGUAUUCCUCCCUGAGCAUTT against 6430604K15Rik | inactive: 1.28
GUGUAUCUUAUGCAAUGAUTT against Olfr582 | inactive: -1.63
CCCUGAUAGUUGCUUGUACTT against E330021D16Rik | inactive: -0.969
GGCAGAGAGCAGAGACAUCTT against BC005662 | inactive: -1.6
CCAGACGCGUAACUGCUACTT against Cox6b2 | inactive: 0.404
GGUGGAAAACAACACCUUATT against A530046H20Rik | inactive: -0.0142
GCUAUGAGACAAGGCUUUCTT against E430029F06 | inactive: 0.0993
CCGAUCAAUGGAUUGUUUUTT against 0610012D09Rik | inactive: 0.387
GCGAAUCUUGCUUCUGACCTT against Hist1h4h | inactive: -0.696
GGAAUUUUCUCGAUUUCACTT against Pde6b | inactive: 0.862
GGUCACUAUACCUGGUAGATT against Aire | inactive: -1.12
GGCACCAGCUCAUUAUCAATT against Ppyr1 | inactive: 2.79
GCAUCAUUAAGUGCUACCGTT against Pcdhac2 | inactive: 1.86
GGAAUCUGCUUGAAUAUGGTT against 1810020E01Rik | inactive: 1.39
GCCCAAGCUUUUAUCAAGATT against Frmd4b | inactive: 0.225
GCAGCGGUGAACAAUAUAATT against 1700123K08Rik | inactive: -1.41
GGUUAGAAGGAACUGGGCATT against 3110062M04Rik | inactive: -0.369
GGAUGCUGGACCAAAAUUGTT against A630085K21 | inactive: 1.15
GGACCUUUCCGAGUCCAUUTT against 1110014C03Rik | inactive: 0.482
GGCUUUAAGAUCGAUACUATT against Hrpt2 | inactive: -2.22
GCCUCUGUCAAGUCUUGGATT against Ftl1 | inactive: -3.01

Sequence | z-score
GGUAAGAGAGGUUUUUUCCTT against Synpo2l | inactive: 0.173
GGGAGAGUCAAACAGAGCATT against Dio1 | inactive: 1.4
GGACCAUAAAACAGUCUGATT against 2310067E08Rik | inactive: -0.852
GCUAUUGAAACUUAUGAGUTT against 2610019N13Rik | inactive: -1.91
GGGCUAGUUUCUUUUUUUGTT against 9530066K23Rik | inactive: -0.112
GCUCUAAGGGCUGUUGCUATT against 0610037P05Rik | inactive: 0.219
CCUAGAAGCUAAUUACCAATT against Saa4 | inactive: -0.95
CCUGUCUAAGCCCUUGGUATT against Mpst | inactive: -0.251
GCUUCUUAAAGAUGCCGUCTT against Lgi4 | inactive: -0.649
GAGGUUUGGCAGAAGUGCATT against Npff | inactive: -0.727
GCUAAAGAUGAGCGUACAUTT against Myh10 | inactive: 1.79
GCCCACGUUUUAAGUCUACTT against Ap1s3 | inactive: -1.51
GUCUCUUCUAAGCUCCAUCTT against Olfr486 | inactive: 0.655
GGCUGCACAAAACGAGAUCTT against Tcirg1 | inactive: 0.586
GCUCGUUGCAUAAAAAGAGTT against Creg2 | inactive: -0.507
GGAUAGCAUACAGUUGUAATT against Gabpb2 | inactive: -0.847
GCCAGUACUUAGGUCUAAGTT against Mrps25 | inactive: -0.738
GGAGUCUGAAGAUGACAUGTT against Rplp1 | inactive: -2.14
GCAUAAUAGUAAAUGCCAUTT against Smyd1 | inactive: 0.789
GGUUUUACUGUGAUGAACGTT against Pcyt1b | inactive: 0.421
GCAAUCUCUCCUUUUGUGATT against Olfr1128 | inactive: 0.387
GGGACUUCAACUUAGUUAUTT against Dppa1 | inactive: -0.436

In another format: entries from further up

| Sequence | z-score |
| --- | --- |
| CCUGUCUAAGCCCUUGGUATT against Mpst | inactive: -0.251 |
| GCUUCUUAAAGAUGCCGUCTT against Lgi4 | inactive: -0.649 |
| GAGGUUUGGCAGAAGUGCATT against Npff | inactive: -0.727 |
| GCUAAAGAUGAGCGUACAUTT against Myh10 | inactive: 1.79 |
| GCCCACGUUUUAAGUCUACTT against Ap1s3 | inactive: -1.51 |
| GUCUCUUCUAAGCUCCAUCTT against Olfr486 | inactive: 0.655 |
| GGCUGCACAAAACGAGAUCTT against Tcirg1 | inactive: 0.586 |
| GCUCGUUGCAUAAAAAGAGTT against Creg2 | inactive: -0.507 |
| GGAUAGCAUACAGUUGUAATT against Gabpb2 | inactive: -0.847 |
| GCCAGUACUUAGGUCUAAGTT against Mrps25 | inactive: -0.738 |
| GGAGUCUGAAGAUGACAUGTT against Rplp1 | inactive: -2.14 |
| GCAUAAUAGUAAAUGCCAUTT against Smyd1 | inactive: 0.789 |
| GGUUUUACUGUGAUGAACGTT against Pcyt1b | inactive: 0.421 |
| GCAAUCUCUCCUUUUGUGATT against Olfr1128 | inactive: 0.387 |

Carrying on:

Sequence | z-score
CCAUUCUACGAGAAUUGUATT against Dncic2 | inactive: 0.385
GGAGGGUGUGUGCUAAUGATT against Tcf2 | inactive: -0.234
GCUAAGUCGGAGCAGUUUUTT against BC022687 | inactive: -1.6
GCUUGCCAUCGACAACCUGTT against Bnip1 | inactive: 0.252
GGUGUAAAGAAAACAUUCCTT against Ctcf | inactive: 3.4
GCGACUGUACAACGAAUUGTT against AI462438 | inactive: 1.06
CGAAUACCUGAAGUGCAAATT against Art3 | inactive: 0.703
AUGGAUGCAAGAGCUUGAUTT against BC049812 | inactive: -0.506
CCCAAUACAAAUCAGUCUATT against 2310042D19Rik | inactive: -0.645
GGAAAUAGAGGUUUGUUCATT against G6pc2 | inactive: -0.62
GGAAUGACAUUGCUACUGUTT against Zdhhc16 | inactive: -2.16
GGAGAUGGAGAAGUAGAUUTT against Abcf2 | inactive: 0.0903
GUUGAAAGUUAACCAAAACTT against Hist1h2ab | inactive: -1.84
GGAACGAAUUUUAGAUGCATT against 9930104E21Rik | inactive: -1.85
GCAUUAGCUUGUUAACAUUTT against D330034A10Rik | inactive: 0.154
GCUUCCUUAUUGACAAUGGTT against Rbm19 | inactive: 1.14
GGUGGUCUCCUACAAUGCCTT against Olfr1451 | inactive: 0.457
GCAUCGUGUGCAAGAUCCUTT against Atp4b | inactive: 0.0689
GGAAAGAGGAUAUUAAGUUTT against Wdr33 | inactive: -1.05
GGCAGUUAUUUCUAUCUUATT against 1700018F24Rik | inactive: -0.000249
GGACCUUUCUGAAGUCCAATT against Eraf | inactive: -0.363
GGAGCAAAGAAAUAAAAGGTT against Olfr851 | inactive: 0.224
